# Results taken from paper PMC12811253.
# Amino acid sequences for entries named in this document (tags omitted).
# UniProt P53396: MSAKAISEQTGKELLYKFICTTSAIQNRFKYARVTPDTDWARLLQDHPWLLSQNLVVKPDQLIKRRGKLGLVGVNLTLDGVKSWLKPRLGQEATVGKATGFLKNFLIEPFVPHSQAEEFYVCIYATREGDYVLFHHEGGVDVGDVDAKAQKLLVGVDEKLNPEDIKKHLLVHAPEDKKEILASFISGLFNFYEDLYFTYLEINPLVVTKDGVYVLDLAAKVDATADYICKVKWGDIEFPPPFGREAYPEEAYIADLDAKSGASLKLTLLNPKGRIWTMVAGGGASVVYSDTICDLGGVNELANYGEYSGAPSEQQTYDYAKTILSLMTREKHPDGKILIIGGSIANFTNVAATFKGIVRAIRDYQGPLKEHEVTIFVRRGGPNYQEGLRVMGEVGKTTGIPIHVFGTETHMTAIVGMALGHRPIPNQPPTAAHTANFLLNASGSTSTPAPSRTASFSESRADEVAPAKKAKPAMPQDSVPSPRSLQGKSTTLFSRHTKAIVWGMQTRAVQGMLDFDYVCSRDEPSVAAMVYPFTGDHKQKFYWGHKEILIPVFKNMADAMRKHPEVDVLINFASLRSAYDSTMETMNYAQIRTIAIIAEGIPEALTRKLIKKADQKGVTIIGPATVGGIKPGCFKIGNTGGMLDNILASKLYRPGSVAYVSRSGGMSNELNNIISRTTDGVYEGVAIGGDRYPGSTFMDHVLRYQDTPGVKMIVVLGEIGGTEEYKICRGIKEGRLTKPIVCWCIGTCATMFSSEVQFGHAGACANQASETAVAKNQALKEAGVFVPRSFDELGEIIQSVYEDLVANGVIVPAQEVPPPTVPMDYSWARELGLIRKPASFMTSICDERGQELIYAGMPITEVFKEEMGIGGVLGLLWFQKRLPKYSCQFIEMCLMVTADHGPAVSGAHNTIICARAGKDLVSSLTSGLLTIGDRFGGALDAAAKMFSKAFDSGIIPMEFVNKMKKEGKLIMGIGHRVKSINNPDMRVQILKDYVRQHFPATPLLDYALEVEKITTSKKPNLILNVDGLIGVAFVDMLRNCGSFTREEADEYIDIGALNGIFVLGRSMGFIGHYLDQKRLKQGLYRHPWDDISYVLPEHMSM
# Results are given in words; binding and its absence hold for the method and conditions named. In cells and extracts the contact can be indirect. Some binding calls cover weakened binding; strength is not graded here. For some assays here: Tags and fused reporters may be left off the sequences shown.
# Columns and labels:
# [1] = target: ATP citrate lyase (ACLY), endogenous (human (endogenous in LM3)) (UniProt P53396); assay: co-IP; endogenous proteins in LM3 cell lysate; antibody overnight at 4 °C, protein A/G PLUS-Agarose beads, immunoblotting
# Myc-ACLY, full-length = Myc-ACLY, full-length (UniProt P53396); assay: co-IP; HEK293 cells co-transfected with 2 μg Myc-ACLY and full-length or mutant Flag-USP13, 24 h, NP-40 buffer; Myc antibody for co-IP, detection by Flag antibody
binding [1],"binding (Myc-ACLY, full-length)",Binder
binds,–,"ubiquitin-specific protease 13 (USP13), endogenous (enzyme, UniProt Q92995 1-863) MQRRGALFGMPGGSGGRKMAAGDIGELLVPHMPTIRVPRSGDRVYKNECAFSYDSPNSEGGLYVCMNTFLAFGREHVERHFRKTGQSVYMHLKRHVREKVRGASGGALPKRRNSKIFLDLDTDDDLNSDDYEYEDEAKLVIFPDHYEIALPNIEELPALVTIACDAVLSSKSPYRKQDPDTWENELPVSKYANNLTQLDNGVRIPPSGWKCARCDLRENLWLNLTDGSVLCGKWFFDSSGGNGHALEHYRDMGYPLAVKLGTITPDGADVYSFQEEEPVLDPHLAKHLAHFGIDMLHMHGTENGLQDNDIKLRVSEWEVIQESGTKLKPMYGPGYTGLKNLGNSCYLSSVMQAIFSIPEFQRAYVGNLPRIFDYSPLDPTQDFNTQMTKLGHGLLSGQYSKPPVKSELIEQVMKEEHKPQQNGISPRMFKAFVSKSHPEFSSNRQQDAQEFFLHLVNLVERNRIGSENPSDVFRFLVEERIQCCQTRKVRYTERVDYLMQLPVAMEAATNKDELIAYELTRREAEANRRPLPELVRAKIPFSACLQAFSEPENVDDFWSSALQAKSAGVKTSRFASFPEYLVVQIKKFTFGLDWVPKKFDVSIDMPDLLDINHLRARGLQPGEEELPDISPPIVIPDDSKDRLMNQLIDPSDIDESSVMQLAEMGFPLEACRKAVYFTGNMGAEVAFNWIIVHMEEPDFAEPLTMPGYGGAASAGASVFGASGLDNQPPEEIVAIITSMGFQRNQAIQALRATNNNLERALDWIFSHPEFEEDSDFVIEMENNANANIISEAKPEGPRVKDGSGTYELFAFISHMGTSTMSGHYICHIKKEGRWVIYNDHKVCASERPPKDLGYMYFYRRIPS"
–,binds,"Flag-USP13 deletion mutant: USP domain (domain or fragment, UniProt Q92995 336-861) TGLKNLGNSCYLSSVMQAIFSIPEFQRAYVGNLPRIFDYSPLDPTQDFNTQMTKLGHGLLSGQYSKPPVKSELIEQVMKEEHKPQQNGISPRMFKAFVSKSHPEFSSNRQQDAQEFFLHLVNLVERNRIGSENPSDVFRFLVEERIQCCQTRKVRYTERVDYLMQLPVAMEAATNKDELIAYELTRREAEANRRPLPELVRAKIPFSACLQAFSEPENVDDFWSSALQAKSAGVKTSRFASFPEYLVVQIKKFTFGLDWVPKKFDVSIDMPDLLDINHLRARGLQPGEEELPDISPPIVIPDDSKDRLMNQLIDPSDIDESSVMQLAEMGFPLEACRKAVYFTGNMGAEVAFNWIIVHMEEPDFAEPLTMPGYGGAASAGASVFGASGLDNQPPEEIVAIITSMGFQRNQAIQALRATNNNLERALDWIFSHPEFEEDSDFVIEMENNANANIISEAKPEGPRVKDGSGTYELFAFISHMGTSTMSGHYICHIKKEGRWVIYNDHKVCASERPPKDLGYMYFYRRI"
